Data taken from the supplement of paper PMC10849652.
This is one part of the list.

Chains of the proteins cited; added tags and fusions are not shown. Lines headed by an entry give the natural chain unless they say otherwise; changes in a name come on top.
UniProt Q9NSD9: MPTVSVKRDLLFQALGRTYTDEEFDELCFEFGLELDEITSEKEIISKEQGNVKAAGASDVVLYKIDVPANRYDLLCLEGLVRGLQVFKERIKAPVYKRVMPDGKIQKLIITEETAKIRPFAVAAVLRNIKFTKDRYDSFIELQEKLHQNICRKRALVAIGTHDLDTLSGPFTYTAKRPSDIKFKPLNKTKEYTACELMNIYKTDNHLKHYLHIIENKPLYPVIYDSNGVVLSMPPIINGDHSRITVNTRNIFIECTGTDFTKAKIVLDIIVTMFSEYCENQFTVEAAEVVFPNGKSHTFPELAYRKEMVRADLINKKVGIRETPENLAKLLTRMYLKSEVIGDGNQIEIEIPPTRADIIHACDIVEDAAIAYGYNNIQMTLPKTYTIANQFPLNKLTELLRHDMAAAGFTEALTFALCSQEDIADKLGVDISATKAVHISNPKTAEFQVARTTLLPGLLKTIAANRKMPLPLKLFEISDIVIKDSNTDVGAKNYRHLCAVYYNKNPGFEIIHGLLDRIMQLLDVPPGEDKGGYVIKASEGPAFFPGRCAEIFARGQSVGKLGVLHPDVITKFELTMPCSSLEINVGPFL
UniProt O95684: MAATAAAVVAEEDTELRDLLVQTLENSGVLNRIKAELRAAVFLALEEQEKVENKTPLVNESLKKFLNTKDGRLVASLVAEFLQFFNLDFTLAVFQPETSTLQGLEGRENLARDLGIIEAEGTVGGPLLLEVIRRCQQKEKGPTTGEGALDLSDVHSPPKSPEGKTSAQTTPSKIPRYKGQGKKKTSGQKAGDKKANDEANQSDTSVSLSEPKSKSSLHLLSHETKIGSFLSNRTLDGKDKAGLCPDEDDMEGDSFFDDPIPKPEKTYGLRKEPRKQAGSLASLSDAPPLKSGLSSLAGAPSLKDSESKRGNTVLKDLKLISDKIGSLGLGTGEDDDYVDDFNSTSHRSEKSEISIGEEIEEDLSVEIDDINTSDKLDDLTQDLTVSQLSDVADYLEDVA
UniProt Q8N3X1: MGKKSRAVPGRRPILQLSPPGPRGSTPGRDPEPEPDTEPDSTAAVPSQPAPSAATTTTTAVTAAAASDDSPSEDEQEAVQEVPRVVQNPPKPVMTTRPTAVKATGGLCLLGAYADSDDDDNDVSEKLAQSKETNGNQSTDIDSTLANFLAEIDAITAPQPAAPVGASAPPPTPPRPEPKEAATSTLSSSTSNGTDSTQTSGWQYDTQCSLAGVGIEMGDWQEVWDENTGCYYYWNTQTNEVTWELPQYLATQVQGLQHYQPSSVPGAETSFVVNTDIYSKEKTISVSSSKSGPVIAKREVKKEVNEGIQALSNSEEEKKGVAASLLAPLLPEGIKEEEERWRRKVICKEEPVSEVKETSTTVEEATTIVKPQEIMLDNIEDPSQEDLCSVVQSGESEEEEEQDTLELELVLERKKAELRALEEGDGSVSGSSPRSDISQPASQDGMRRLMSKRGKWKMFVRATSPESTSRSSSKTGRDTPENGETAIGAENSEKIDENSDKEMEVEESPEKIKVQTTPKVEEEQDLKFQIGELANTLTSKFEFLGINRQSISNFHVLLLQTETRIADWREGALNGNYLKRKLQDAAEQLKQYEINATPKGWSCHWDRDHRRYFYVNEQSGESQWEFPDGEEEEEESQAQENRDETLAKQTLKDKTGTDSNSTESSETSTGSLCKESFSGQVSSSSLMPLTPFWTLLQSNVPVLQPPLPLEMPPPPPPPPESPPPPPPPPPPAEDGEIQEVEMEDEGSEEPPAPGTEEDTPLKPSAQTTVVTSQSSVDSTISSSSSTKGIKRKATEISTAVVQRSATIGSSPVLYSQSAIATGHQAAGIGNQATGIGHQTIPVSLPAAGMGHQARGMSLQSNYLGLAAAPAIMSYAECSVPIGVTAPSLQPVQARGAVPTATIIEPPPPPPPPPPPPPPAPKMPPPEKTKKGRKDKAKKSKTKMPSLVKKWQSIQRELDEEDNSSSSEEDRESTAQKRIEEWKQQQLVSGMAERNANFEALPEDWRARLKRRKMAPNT
UniProt P10109: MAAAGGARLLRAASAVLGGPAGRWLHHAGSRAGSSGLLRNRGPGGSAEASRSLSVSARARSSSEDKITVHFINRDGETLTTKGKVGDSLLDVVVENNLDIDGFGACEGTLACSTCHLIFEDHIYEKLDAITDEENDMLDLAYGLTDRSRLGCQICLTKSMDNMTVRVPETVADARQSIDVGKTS
UniProt P62942, whole entry, looked up: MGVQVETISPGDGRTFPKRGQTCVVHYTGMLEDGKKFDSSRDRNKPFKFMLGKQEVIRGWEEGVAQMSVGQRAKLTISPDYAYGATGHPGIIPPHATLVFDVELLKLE
UniProt Q8N0W3: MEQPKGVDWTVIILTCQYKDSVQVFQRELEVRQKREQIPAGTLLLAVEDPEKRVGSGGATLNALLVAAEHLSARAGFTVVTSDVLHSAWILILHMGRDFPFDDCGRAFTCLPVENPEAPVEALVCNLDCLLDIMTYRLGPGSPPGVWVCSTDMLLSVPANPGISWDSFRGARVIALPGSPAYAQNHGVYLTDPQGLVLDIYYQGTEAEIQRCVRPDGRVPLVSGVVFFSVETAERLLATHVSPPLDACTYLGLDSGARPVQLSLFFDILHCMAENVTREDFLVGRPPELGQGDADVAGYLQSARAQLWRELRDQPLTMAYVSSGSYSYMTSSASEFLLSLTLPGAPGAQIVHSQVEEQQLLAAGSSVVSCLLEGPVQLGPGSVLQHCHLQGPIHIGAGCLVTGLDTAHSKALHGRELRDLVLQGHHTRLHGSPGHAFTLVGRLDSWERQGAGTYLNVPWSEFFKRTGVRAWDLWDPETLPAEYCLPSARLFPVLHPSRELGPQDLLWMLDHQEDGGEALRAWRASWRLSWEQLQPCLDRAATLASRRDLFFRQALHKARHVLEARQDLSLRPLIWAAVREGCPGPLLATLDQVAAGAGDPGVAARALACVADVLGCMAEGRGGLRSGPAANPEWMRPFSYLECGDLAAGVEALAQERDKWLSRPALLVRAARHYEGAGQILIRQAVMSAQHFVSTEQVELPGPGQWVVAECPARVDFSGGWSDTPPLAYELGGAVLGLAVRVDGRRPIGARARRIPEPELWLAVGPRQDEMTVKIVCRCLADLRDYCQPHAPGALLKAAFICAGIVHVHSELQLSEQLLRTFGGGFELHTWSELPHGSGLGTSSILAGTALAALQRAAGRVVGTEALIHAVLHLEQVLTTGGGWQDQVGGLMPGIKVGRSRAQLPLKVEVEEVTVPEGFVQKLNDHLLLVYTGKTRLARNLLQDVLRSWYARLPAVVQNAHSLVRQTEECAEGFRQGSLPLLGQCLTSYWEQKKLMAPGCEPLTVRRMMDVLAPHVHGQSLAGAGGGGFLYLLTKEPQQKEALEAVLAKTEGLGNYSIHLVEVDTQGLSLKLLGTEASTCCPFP
UniProt Q9Y285: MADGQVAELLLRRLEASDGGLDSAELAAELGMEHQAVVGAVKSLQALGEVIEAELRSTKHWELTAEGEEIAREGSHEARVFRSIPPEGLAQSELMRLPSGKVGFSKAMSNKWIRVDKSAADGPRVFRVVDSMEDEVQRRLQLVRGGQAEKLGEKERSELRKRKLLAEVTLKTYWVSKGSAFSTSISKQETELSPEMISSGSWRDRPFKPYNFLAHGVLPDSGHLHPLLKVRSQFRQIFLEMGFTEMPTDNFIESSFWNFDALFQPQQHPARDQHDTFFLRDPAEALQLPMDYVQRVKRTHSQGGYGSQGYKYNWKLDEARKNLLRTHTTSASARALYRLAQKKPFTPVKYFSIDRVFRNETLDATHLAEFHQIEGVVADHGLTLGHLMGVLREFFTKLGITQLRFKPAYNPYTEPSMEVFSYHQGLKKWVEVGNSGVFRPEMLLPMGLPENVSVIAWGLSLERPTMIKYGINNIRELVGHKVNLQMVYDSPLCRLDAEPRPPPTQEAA
UniProt Q96IG2: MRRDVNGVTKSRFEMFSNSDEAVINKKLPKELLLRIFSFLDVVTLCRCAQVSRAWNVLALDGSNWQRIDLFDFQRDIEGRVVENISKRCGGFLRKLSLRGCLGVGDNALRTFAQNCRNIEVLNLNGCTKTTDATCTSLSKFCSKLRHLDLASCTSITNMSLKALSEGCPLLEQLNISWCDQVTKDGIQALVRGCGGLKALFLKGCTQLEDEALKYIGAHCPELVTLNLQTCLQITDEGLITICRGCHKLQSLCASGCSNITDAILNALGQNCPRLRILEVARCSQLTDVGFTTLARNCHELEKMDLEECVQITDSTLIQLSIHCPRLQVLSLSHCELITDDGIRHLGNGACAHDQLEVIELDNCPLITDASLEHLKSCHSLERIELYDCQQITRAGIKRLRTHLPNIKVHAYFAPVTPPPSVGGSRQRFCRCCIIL
UniProt Q9H9S5: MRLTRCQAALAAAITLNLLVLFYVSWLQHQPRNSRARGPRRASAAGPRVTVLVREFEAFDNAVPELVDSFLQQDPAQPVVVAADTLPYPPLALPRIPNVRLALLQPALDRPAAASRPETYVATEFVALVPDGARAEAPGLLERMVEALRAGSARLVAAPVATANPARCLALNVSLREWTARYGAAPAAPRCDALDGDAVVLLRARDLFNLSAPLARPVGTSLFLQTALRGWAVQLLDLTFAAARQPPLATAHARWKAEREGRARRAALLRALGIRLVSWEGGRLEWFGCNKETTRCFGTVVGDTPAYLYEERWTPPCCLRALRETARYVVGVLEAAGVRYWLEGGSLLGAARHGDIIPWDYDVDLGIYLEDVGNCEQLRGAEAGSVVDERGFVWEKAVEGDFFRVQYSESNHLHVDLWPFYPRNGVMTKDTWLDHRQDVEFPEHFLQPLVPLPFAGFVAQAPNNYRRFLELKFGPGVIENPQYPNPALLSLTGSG
UniProt Q9Y421: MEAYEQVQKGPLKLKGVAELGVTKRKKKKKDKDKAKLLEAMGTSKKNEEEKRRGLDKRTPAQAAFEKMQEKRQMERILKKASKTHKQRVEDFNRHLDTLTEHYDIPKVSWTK
UniProt O95466, whole entry, looked up: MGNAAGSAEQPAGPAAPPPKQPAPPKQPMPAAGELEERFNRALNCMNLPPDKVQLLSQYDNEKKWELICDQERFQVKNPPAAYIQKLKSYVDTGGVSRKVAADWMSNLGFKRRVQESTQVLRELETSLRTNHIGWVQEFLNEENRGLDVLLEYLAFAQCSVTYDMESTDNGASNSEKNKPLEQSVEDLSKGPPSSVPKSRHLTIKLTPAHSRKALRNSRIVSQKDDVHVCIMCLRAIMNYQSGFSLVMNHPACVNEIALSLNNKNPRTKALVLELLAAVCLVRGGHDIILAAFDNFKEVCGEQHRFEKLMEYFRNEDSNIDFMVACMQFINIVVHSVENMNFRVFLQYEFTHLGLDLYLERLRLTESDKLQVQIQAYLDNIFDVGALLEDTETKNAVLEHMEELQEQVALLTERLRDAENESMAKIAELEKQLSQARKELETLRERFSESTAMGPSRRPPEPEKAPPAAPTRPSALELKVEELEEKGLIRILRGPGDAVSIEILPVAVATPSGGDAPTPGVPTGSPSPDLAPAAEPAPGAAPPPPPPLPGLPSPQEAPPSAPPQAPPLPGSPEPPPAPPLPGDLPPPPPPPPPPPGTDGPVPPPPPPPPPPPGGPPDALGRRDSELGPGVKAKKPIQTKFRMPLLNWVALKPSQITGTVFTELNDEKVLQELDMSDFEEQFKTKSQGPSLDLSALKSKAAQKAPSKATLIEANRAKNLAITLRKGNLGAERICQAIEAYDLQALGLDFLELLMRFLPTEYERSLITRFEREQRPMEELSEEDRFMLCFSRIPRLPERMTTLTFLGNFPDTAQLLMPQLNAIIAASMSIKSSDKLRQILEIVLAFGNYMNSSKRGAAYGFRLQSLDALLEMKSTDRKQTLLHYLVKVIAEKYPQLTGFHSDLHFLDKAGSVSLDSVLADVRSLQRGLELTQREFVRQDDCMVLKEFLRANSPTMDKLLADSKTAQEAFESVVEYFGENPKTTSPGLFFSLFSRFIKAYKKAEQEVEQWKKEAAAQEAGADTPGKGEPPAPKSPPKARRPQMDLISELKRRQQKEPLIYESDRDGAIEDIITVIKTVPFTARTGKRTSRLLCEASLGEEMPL
UniProt Q9H0X4: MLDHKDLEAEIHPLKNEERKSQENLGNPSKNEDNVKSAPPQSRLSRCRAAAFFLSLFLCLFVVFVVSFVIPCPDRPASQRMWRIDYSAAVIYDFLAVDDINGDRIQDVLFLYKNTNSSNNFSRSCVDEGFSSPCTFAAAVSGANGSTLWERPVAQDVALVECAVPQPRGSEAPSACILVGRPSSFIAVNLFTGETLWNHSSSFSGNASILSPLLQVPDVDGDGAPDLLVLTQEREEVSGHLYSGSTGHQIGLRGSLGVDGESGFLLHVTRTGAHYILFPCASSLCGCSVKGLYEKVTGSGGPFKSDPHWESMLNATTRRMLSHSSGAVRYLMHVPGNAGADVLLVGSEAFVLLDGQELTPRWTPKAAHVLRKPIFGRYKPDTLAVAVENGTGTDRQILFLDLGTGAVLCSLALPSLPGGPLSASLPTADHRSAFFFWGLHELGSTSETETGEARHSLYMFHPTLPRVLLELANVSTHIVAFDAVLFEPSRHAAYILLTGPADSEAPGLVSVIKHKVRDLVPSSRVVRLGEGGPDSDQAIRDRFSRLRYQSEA

Legend:
Assay in all cases: log2 fold change, soluble protein after heating vs DMSO (PISA); higher = thermal stabilisation; K562 cells, 10 uM, 30 min; active = over 0.2 and 3.5 SD of the protein, either way, in both replicates (recomputed)
[1] = compound: NC(=O)Nc1cc(-c2cccc(F)c2)sc1C(=O)N[C@H]1CCCNC1
Outline: (§1)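 Quantification of soluble protein used TMTpro 16plex LC-MS/MS, with channel sums equalised. Samples were the supernatant after 21,000xg for 90 min of pooled aliquots from K562 cells (2×10^6 cells/mL) treated with 10 μM compound for 30 min, heated for 3 min over 48°C-58°C, and extracted in PBS with 0.5% NP-40 at 4°C. Values, from duplicates, describe thermal stability against control samples on a log2 fold-change scale.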

[2] = compound: NC(=O)c1cnc(N[C@@H]2CCCC[C@@H]2N)nc1Nc1cccc(-n2nccn2)c1
Outline: as §1

[3] = compound: NC1(c2ccc(-c3nc4ccn5c(=O)[nH]nc5c4cc3-c3ccccc3)cc2)CCC1
Outline: as §1

[4] = compound: NCC(=O)Nc1ccc(-n2nc(C(F)(F)F)cc2-c2ccc3c(ccc4ccccc43)c2)cc1
Outline: as §1

entinostat = compound: Nc1ccccc1NC(=O)c1ccc(CNC(=O)OCc2cccnc2)cc1 [entinostat]
Outline: as §1

vorinostat = compound: O=C(CCCCCCC(=O)Nc1ccccc1)NO [vorinostat]
Outline: as §1

citarinostat = compound: O=C(CCCCCCNC(=O)c1cnc(N(c2ccccc2)c2ccccc2Cl)nc1)NO [citarinostat]
Outline: as §1

silmitasertib = compound: O=C(O)c1ccc2c(c1)nc(Nc1cccc(Cl)c1)c1ccncc12 [silmitasertib]
Outline: as §1

[5] = compound: O=C1NC(=O)C(c2cnc3ccccn23)=C1c1cn2c3c(cc(F)cc13)CN(C(=O)N1CCCCC1)CC2
Outline: as §1

[6] = compound: c1cc(OCCN2CCCCC2)cc(-c2n[nH]c3ccc(-c4nnc[nH]4)cc23)c1
Outline: as §1

entospletinib = compound: c1cn2cc(-c3ccc4cn[nH]c4c3)nc(Nc3ccc(N4CCOCC4)cc3)c2n1 [entospletinib]
Outline: as §1

Measured: log2 fold change

FKBPL (UniProt Q9UIM3)
inactive: [1] -0.008 | [2] -0.016 | [3] -0.045 | [4] -0.022 | entinostat -0.021 | vorinostat 0.009 | citarinostat 0.037 | silmitasertib -0.04 | [5] -0.057 | [6] -0.038 | entospletinib -0.012

FARSB (UniProt Q9NSD9)
inactive: [1] -0.017 | [2] -0.042 | [3] -0.054 | [4] -0.006 | entinostat 0.025 | vorinostat 0.019 | citarinostat 0.031 | silmitasertib 0.01 | [5] 0.011 | [6] -0.026 | entospletinib -0.01

FGFR1OP (UniProt O95684)
inactive: [1] 0.088 | [2] -0.085 | [3] -0.034 | [4] -0.015 | entinostat 0.108 | vorinostat 0.041 | citarinostat -0.041 | silmitasertib 0.016 | [5] 0.001 | [6] -0.075 | entospletinib 0.016

FKBP5 (UniProt Q13451)
inactive: [1] -0.097 | [2] -0.155 | [3] -0.087 | [4] -0.05 | entinostat 0.034 | vorinostat 0.098 | citarinostat 0.092 | silmitasertib 0.103 | [5] 0.083 | [6] -0.007 | entospletinib 0.081

FNBP4 isoform 2 (UniProt Q8N3X1)
inactive: [1] 0.025 | [2] 0.004 | [3] 0.015 | [4] -0.013 | entinostat -0.039 | vorinostat -0.048 | citarinostat 0.004 | silmitasertib -0.038 | [5] 0.004 | [6] -0.051 | entospletinib 0.011

FDX1 (UniProt P10109)
inactive: [1] -0.083 | [2] 0.023 | [3] 0.061 | [4] -0.017 | entinostat 0.04 | vorinostat -0.075 | citarinostat 0.022 | silmitasertib 0.051 | [5] -0.01 | [6] -0.03 | entospletinib -0.037

FKBP1A (UniProt P62942)
inactive: [1] 0.073 | [2] -0.101 | [3] 0.107 | [4] 0.031 | entinostat -0.028 | vorinostat 0.088 | citarinostat 0.011 | silmitasertib -0.1 | [5] -0.013 | [6] -0.022 | entospletinib 0.072

FAM98A (UniProt Q8NCA5)
inactive: [1] 0.107 | [2] 0.043 | [3] 0.234 | [4] 0.128 | entinostat -0.073 | vorinostat 0.046 | citarinostat -0.033 | silmitasertib 0.06 | [5] 0.174 | [6] -0.108 | entospletinib 0.099

FDX2 (UniProt Q6P4F2)
inactive: [1] 0.033 | [2] -0.007 | [3] -0.045 | [4] 0.076 | entinostat 0.007 | vorinostat -0.116 | citarinostat -0.047 | silmitasertib 0.075 | [5] 0.045 | [6] 0.04 | entospletinib 0.053

FIP1L1 (UniProt Q6UN15)
inactive: [1] 0.026 | [2] 0.042 | [3] 0.11 | [4] 0.04 | entinostat -0.083 | vorinostat 0.011 | citarinostat -0.001 | silmitasertib -0.032 | [5] 0.044 | [6] -0.119 | entospletinib 0.066

FLII (UniProt Q13045)
inactive: [1] -0.033 | [2] -0.072 | [3] -0.086 | [4] -0.019 | entinostat -0.011 | vorinostat 0.017 | citarinostat 0.035 | silmitasertib 0.058 | [5] -0.036 | [6] -0.01 | entospletinib -0.005

FAM76B (UniProt Q5HYJ3)
inactive: [1] 0.004 | [2] 0.064 | [3] 0.119 | [4] 0.166 | entinostat -0.082 | vorinostat 0.105 | citarinostat 0.004 | silmitasertib -0.084 | [5] 0.001 | [6] 0.068 | entospletinib 0.068

FAM3C (UniProt Q92520)
inactive: [1] 0.015 | [2] 0.056 | [3] -0.088 | [4] 0.029 | entinostat -0.045 | vorinostat -0.025 | citarinostat 0.037 | silmitasertib 0.03 | [5] 0.021 | [6] 0.007 | entospletinib -0.03

FCSK isoform 2 (UniProt Q8N0W3)
inactive: [1] 0.028 | [2] 0.048 | [3] -0.052 | [4] 0.032 | entinostat 0.001 | vorinostat -0.009 | citarinostat 0.02 | silmitasertib -0.031 | [5] -0.063 | [6] 0.013 | entospletinib -0.008

FARSA (UniProt Q9Y285)
inactive: [1] -0.041 | [2] -0.03 | [3] -0.097 | [4] -0.063 | entinostat -0.013 | vorinostat 0.041 | citarinostat 0.03 | silmitasertib 0.007 | [5] -0.028 | [6] -0.034 | entospletinib 0.007

FKBP2 (UniProt P26885)
inactive: [1] -0.034 | [2] -0.063 | [3] -0.011 | [4] 0.022 | entinostat -0.035 | vorinostat -0.009 | citarinostat -0.005 | silmitasertib 0.014 | [5] -0.065 | [6] -0.04 | entospletinib 0.021

FLAD1 (UniProt Q8NFF5)
inactive: [1] -0.175 | [2] -0.01 | [3] -0.081 | [4] -0.046 | entinostat -0.134 | vorinostat -0.059 | citarinostat 0.038 | silmitasertib 0.011 | [5] -0.002 | [6] 0.036 | entospletinib -0.017

FBXL20 (UniProt Q96IG2)
inactive: [1] -0.052 | [2] 0.038 | [3] -0.071 | [4] 0.016 | entinostat 0.044 | vorinostat 0.065 | citarinostat -0.012 | silmitasertib 0.005 | [5] -0.112 | [6] 0 | entospletinib -0.029

FKRP (UniProt Q9H9S5)
inactive: [1] -0.098 | [2] -0.048 | [3] -0.01 | [4] 0.032 | entinostat -0.099 | vorinostat -0.046 | citarinostat 0.149 | silmitasertib 0.041 | [5] 0.017 | [6] -0.307 | entospletinib -0.318

FAM32A (UniProt Q9Y421)
inactive: [1] -0.004 | [2] -0.019 | [3] 0.087 | [4] -0.055 | entinostat 0.014 | vorinostat -0.017 | citarinostat -0.034 | silmitasertib 0.048 | [5] 0.061 | [6] -0.061 | entospletinib 0.051

2 entries picked at random from those above, as already listed:
FBXL20 (UniProt Q96IG2)
inactive: [1] -0.052 | [2] 0.038 | [3] -0.071 | [4] 0.016 | entinostat 0.044 | vorinostat 0.065 | citarinostat -0.012 | silmitasertib 0.005 | [5] -0.112 | [6] 0 | entospletinib -0.029

FAM32A (UniProt Q9Y421)
inactive: [1] -0.004 | [2] -0.019 | [3] 0.087 | [4] -0.055 | entinostat 0.014 | vorinostat -0.017 | citarinostat -0.034 | silmitasertib 0.048 | [5] 0.061 | [6] -0.061 | entospletinib 0.051

(next part)

FIZ1 (UniProt Q96SL8)
inactive: [1] 0.026 | [3] 0.097 | [4] 0.061 | entinostat -0.257 | vorinostat 0.044 | citarinostat -0.12 | silmitasertib -0.103 | [5] 0.06 | [6] 0.041

FAT1 (UniProt Q14517)
inactive: [1] -0.018 | [3] 0 | [4] -0.075 | entinostat 0.015 | vorinostat -0.04 | silmitasertib 0.176 | [5] -0.051

FCHO1 (UniProt O14526)
inactive: [1] -0.001 | [2] -0.21 | [3] -0.119 | [4] 0.054 | entinostat -0.032 | citarinostat -0.086 | silmitasertib -0.24 | [5] -0.102 | [6] 0.302

FN3KRP (UniProt Q9HA64)
inactive: [1] 0.049 | [2] -0.005 | [3] 0.021 | [4] 0.014 | entinostat -0.019 | vorinostat 0.001 | citarinostat 0.003 | silmitasertib -0.044 | [5] 0.016 | [6] 0.024 | entospletinib -0.017

FMNL1 isoform 3 (UniProt O95466)
inactive: [1] -0.612 | [2] 0.551 | entinostat 0.377 | [5] 0.27

FAM234A (UniProt Q9H0X4)
inactive: [1] -0.012 | [2] 0.028 | [3] 0.134 | [4] -0.006 | entinostat -0.106 | citarinostat -0.007 | silmitasertib -0.083 | [5] 0.048 | [6] -0.051 | entospletinib 0.048

FCF1 (UniProt Q9Y324)
inactive: [1] 0.244 | [3] 0.097 | [4] 0.36 | entinostat 0 | vorinostat -0.045 | citarinostat -0.137 | silmitasertib 0.099 | [5] 0.349 | [6] -0.375
